# From the supplement of paper PMC9015667
# Structures can show the parent of a compound that is named as a salt. The list shows a part of the results. Repeats are few or missing, and single values can be far off.
# System: UACC62P (parental melanoma line)
# Assay: reduction in cell viability relative to untreated/vehicle; higher = more growth inhibition
# Conditions: 200 nM; 72 h
row,SMILES,reduction in cell viability [%]
1,CC(C)(C)c1[nH]cnc1/C=c1\[nH]c(=O)/c(=C/c2ccccc2)[nH]c1=O [Plinabulin],51.8
2,COc1cccc2c1C(=O)c1c(O)c3c(c(O)c1C2=O)C[C@@](O)(C(=O)CO)C[C@@H]3O[C@H]1C[C@H](N)[C@H](O[C@@H]2CCCCO2)[C@H](C)O1 [Pirarubicin],< 0
3,COC(c1ccccc1)(c1ccccc1)[C@H](Oc1nc(C)cc(C)n1)C(=O)O [Ambrisentan],< 0

# System: UACC62R (matched melanoma line resistant to BRAF inhibitors)
# Assay: as above
# Conditions: 200 nM; 72 h
row,SMILES,reduction in cell viability [%]
1,Oc1cc2c(cc1O)[C@@H]1c3ccc(O)c(O)c3OC[C@]1(O)C2 [Hematoxylin],< 0
2,C[C@H]1[C@H](C)CC[C@]2(C(=O)O)CC[C@]3(C)C(=CC[C@@H]4[C@@]5(C)CC[C@H](O)C(C)(C)[C@@H]5CC[C@]43C)[C@H]12 [Ursolic acid],< 0
3,C[C@@H](O)[C@H]1C(=O)N2C(C(=O)OCOC(=O)C(C)(C)C)=C(SC3CN(C4=NCCS4)C3)[C@H](C)[C@H]12 [Tebipenem pivoxil],< 0
4,O=C(Nc1nnc(-c2ccco2)o1)c1cc(-c2ccccc2)nc2ccccc12,< 0
5,CCOC(=O)/C=C/[C@H](C[C@@H]1CCNC1=O)NC(=O)[C@@H](CC(=O)[C@@H](NC(=O)c1cc(C)on1)C(C)C)Cc1ccc(F)cc1 [Rupintrivir],< 0
6,CC(C)CC(=O)Nc1n[nH]c2c1CN(C(=O)C1CCN(C)CC1)C2(C)C,63.6
7,Cc1nc(-c2ccc(OCC(C)C)c(C#N)c2)sc1C(=O)O [Febuxostat],< 0
8,O=C(NC1CC1)c1cccc(-c2ccc3c(NC(=O)C4CC4)n[nH]c3c2)c1,< 0
9,COC(=O)C1=C(C)NC(C)=C(C(=O)OCCN2CCN(C(c3ccccc3)c3ccccc3)CC2)C1c1cccc([N+](=O)[O-])c1 (configuration not stated) [Manidipine dihydrochloride],< 0
10,O=C1CCC(N2C(=O)c3ccccc3C2=O)C(=O)N1 (configuration not stated) [Thalidomide],< 0
11,CC1(C)C(=O)N(CCN2CCC(C(=O)c3ccc(F)cc3)CC2)c2ccccc21,< 0
12,COC1=CC(c2cc3ccccc3[nH]2)=N/C1=C\c1[nH]c(C)cc1C [Obatoclax],58.7
13,C[C@H]1c2cccc(O)c2C(=O)C2=C(O)[C@]3(O)C(=O)C(C(N)=O)=C(O)[C@@H](N(C)C)[C@@H]3[C@@H](O)[C@@H]21 [Doxycycline],< 0
14,Cc1cn([C@H]2O[C@@H](CO)[C@H](O)[C@H]2F)c(=O)[nH]c1=O [Clevudine],< 0
15,Cc1nc(Nc2ncc(C(=O)Nc3c(C)cccc3Cl)s2)cc(N2CCN(CCO)CC2)n1 [Dasatinib],< 0
16,CC[N+](CC)(CC)CCOc1cccc(OCC[N+](CC)(CC)CC)c1OCC[N+](CC)(CC)CC [Gallamine triethiodide],13.2
17,Fc1ccc(C(c2ccc(F)cc2)N2CCN(C/C=C/c3ccccc3)CC2)cc1 [Flunarizine],< 0
18,Cc1ccc(S(=O)(=O)OCC(=O)Nc2ccc(C(=O)O)c(O)c2)cc1,< 0
19,Clc1ccc(C2(c3ccc(-c4cn[nH]c4)cc3)CCNCC2)cc1,< 0
20,CC(=O)O[C@@H]1[C@@H](OC(C)=O)[C@@H](O)[C@H](Oc2c(-c3ccc(O)cc3)oc3cc(O)cc(O)c3c2=O)O[C@H]1C,< 0

row,SMILES,reduction in cell viability [%]
1,CC(C)(O)CC(=O)NCCn1ccc2ncnc(Nc3ccc(Oc4cccc(C(F)(F)F)c4)c(Cl)c3)c21,< 0
2,NS(=O)(=O)c1cc2c(cc1Cl)NCNS2(=O)=O [Hydrochlorothiazide],< 0
3,C[C@@H]1COC(Nc2ccc3ncnc(Nc4ccc(OCc5nccs5)c(Cl)c4)c3c2)=N1 [Varlitinib tosylate],< 0
4,N#C[C@@H]1C[C@@H]2C[C@@H]2N1C(=O)[C@@H](N)C12CC3CC(CC(O)(C3)C1)C2 [Saxagliptin],< 0
5,COc1ccc(-c2nc3cc(C4=NNC(=O)CC4C)ccc3[nH]2)cc1 (configuration not stated) [Pimobendan hydrochloride],< 0
6,COc1ccc(-c2ccc3c(N4CCOC[C@@H]4C)nc(N4CCOC[C@@H]4C)nc3n2)cc1CO,66.1
7,CC[C@H](CC#N)OC(=O)N[C@@H](C)c1cccc(NC(=O)Nc2ccc(-c3cnco3)c(OC)c2)c1,49.5
8,Oc1ccc(-c2nc(-c3ccc(F)cc3)c(-c3ccncc3)[nH]2)cc1,13.4
9,Fc1cc(-c2cccc3ncc(-c4cnn(C5CCNCC5)c4)nc23)cc(F)c1CN1CCOCC1,< 0
10,c1ccc(-c2oc3ncnc(NC[C@@H]4CCCO4)c3c2-c2ccccc2)cc1,< 0
11,CS(=O)(=O)N(Cc1ccco1)C[C@@H](O)Cn1c2ccccc2c2ccccc21,< 0
12,Cn1cc(-c2ccncc2)c(-c2ccc(OCc3ccc4ccccc4n3)cc2)n1,< 0
13,CC(C)CN(C[C@@H](O)[C@H](Cc1ccccc1)NC(=O)O[C@H]1CCOC1)S(=O)(=O)c1ccc(N)cc1 [Amprenavir],< 0
14,CNC(=O)c1ccc2cc([C@@]3(O)CCn4cncc43)ccc2c1 [Orteronel],< 0
15,CCN(CC)CCCCNc1ncc2c(n1)N(C)C(=O)N(c1c(Cl)c(OC)cc(OC)c1Cl)C2,< 0
16,CCOC(=O)N1c2ccc(C(F)(F)F)cc2[C@@H](N(Cc2cc(C(F)(F)F)cc(C(F)(F)F)c2)C(=O)OC)C[C@H]1CC [Torcetrapib],< 0
17,CC(C)(C)c1[nH]cnc1/C=c1\[nH]c(=O)/c(=C/c2ccccc2)[nH]c1=O [Plinabulin],81.6
18,COc1cccc2c1C(=O)c1c(O)c3c(c(O)c1C2=O)C[C@@](O)(C(=O)CO)C[C@@H]3O[C@H]1C[C@H](N)[C@H](O[C@@H]2CCCCO2)[C@H](C)O1 [Pirarubicin],< 0
19,COC(c1ccccc1)(c1ccccc1)[C@H](Oc1nc(C)cc(C)n1)C(=O)O [Ambrisentan],< 0
